# Laboratory results from article PMC9462477.
# Amino acid sequences for entries named in this document (tags omitted). Residues count along the entry.
# UniProt P43004, residues 10-574: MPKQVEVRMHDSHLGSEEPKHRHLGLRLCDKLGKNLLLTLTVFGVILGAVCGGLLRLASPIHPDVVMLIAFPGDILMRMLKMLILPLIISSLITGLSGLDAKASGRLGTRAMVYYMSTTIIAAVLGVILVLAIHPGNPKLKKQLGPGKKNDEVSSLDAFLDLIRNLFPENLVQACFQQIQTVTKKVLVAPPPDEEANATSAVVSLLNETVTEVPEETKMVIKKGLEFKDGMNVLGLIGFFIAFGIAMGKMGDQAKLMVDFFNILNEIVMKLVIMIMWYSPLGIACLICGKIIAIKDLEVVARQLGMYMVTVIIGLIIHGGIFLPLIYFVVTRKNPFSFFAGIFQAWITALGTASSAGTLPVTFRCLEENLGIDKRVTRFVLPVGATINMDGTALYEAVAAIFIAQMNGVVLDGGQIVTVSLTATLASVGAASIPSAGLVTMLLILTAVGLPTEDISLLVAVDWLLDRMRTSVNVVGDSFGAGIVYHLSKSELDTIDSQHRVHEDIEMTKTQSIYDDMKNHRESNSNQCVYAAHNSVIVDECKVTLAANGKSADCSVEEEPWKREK
# UniProt Q9UKV5: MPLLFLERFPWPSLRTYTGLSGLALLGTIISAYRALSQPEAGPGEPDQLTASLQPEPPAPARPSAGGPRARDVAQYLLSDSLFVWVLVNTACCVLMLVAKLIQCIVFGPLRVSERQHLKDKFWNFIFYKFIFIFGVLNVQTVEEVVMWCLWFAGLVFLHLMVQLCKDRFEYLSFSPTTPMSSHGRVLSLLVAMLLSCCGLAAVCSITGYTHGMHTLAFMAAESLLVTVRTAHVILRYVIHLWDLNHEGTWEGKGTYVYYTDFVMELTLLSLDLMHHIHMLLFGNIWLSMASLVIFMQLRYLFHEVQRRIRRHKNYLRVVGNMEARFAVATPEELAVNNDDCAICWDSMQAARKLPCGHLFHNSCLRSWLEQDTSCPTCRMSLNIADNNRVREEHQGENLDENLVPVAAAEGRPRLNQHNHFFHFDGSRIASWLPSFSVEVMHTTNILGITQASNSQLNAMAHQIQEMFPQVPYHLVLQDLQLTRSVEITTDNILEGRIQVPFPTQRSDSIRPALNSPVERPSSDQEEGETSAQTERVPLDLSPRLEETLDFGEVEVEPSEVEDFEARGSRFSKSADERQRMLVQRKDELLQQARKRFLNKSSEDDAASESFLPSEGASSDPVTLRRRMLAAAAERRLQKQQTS
# Target: EAAT2-FLAG (excitatory amino acid transporter 2, FLAG-tagged) (human) (UniProt P43004)
# Test: affinity purification with mass spectrometry; EAAT2-FLAG precipitated with FLAG antibody from HEK293 cells, SDS-PAGE, digested, MS; ion score greater than 300 taken as high-confidence
substance,measurement,value
"AMFR (E3 ubiquitin ligase AMFR), found by MS with EAAT2-FLAG (from UniProt Q9UKV5 1-643) (enzyme)",binding,binds

# No constants are given. Whether binding was seen depends on the method and setting. In cells and extracts the contact can be indirect. Here binding means that the protein was enriched with, or labelled near, the bait; the list need not be complete.
